Results are given in words; binding and its absence hold for the method and conditions named. In cells and extracts the contact can be indirect. Some binding calls cover weakened binding; strength is not graded here.

Protein sequences, listed by entry. Tags and fused reporters are not part of them. Residues count along the entry.
UniProt P49582, residues 23-502: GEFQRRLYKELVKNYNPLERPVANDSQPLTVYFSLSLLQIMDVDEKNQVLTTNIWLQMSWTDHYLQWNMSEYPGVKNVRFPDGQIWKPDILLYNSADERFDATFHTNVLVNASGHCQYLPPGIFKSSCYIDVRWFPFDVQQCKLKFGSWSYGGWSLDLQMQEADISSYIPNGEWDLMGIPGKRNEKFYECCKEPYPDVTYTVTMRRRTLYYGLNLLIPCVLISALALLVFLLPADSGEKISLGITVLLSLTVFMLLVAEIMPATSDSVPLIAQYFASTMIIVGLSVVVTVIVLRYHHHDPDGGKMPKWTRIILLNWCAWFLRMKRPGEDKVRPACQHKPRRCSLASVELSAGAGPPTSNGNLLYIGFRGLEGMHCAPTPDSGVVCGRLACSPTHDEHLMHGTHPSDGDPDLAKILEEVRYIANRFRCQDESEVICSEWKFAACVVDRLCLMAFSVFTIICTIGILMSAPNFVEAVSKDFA

The assay has as its target T1, LYNX2 protein (LYPD1) (mouse (endogenous in amygdala)) (UniProt Q8BLC3).
T1 sequence: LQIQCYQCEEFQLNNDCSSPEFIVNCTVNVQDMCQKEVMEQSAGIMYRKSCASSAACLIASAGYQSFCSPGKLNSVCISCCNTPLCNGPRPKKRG
Description: co-IP; Dynabeads A with rabbit anti-lypd1 (LYNX2) antibody; BLA homogenates (one sample whole brain) of WT mice at 13 mg/mL in 50 mM Tris, 150 mM NaCl, 0.75% Triton-X 100, protease inhibitors; 3 days at RT; Western blot with anti-α7 nAChR antibody; Lynx2KO extracts as negative control. (A western blot detects proteins with antibodies after separation by electrophoresis.)

Take “α7 nicotinic acetylcholine receptor subunit (from UniProt P49582 23-502)”: the binding result is recorded as “binds”.

For the origin of these results see article PMC11998120.
